The supplement of paper PMC12067093, “Discovery and optimisation of a covalent ligand for TRIM25 and its application to targeted protein ubiquitination” (Chemical Science, 2025)
The list shows a part of the results.

By UniProt entry, the sequences of proteins in these tests, tags left out. Where a name states a change or a piece, a line headed by the entry shows the natural chain unless it says otherwise.
UniProt O43598: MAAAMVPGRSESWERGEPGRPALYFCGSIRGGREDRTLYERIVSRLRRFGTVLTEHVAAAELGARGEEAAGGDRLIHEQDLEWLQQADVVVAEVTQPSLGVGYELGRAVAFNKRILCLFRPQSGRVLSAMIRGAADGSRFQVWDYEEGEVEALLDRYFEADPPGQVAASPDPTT
UniProt Q6V1X1: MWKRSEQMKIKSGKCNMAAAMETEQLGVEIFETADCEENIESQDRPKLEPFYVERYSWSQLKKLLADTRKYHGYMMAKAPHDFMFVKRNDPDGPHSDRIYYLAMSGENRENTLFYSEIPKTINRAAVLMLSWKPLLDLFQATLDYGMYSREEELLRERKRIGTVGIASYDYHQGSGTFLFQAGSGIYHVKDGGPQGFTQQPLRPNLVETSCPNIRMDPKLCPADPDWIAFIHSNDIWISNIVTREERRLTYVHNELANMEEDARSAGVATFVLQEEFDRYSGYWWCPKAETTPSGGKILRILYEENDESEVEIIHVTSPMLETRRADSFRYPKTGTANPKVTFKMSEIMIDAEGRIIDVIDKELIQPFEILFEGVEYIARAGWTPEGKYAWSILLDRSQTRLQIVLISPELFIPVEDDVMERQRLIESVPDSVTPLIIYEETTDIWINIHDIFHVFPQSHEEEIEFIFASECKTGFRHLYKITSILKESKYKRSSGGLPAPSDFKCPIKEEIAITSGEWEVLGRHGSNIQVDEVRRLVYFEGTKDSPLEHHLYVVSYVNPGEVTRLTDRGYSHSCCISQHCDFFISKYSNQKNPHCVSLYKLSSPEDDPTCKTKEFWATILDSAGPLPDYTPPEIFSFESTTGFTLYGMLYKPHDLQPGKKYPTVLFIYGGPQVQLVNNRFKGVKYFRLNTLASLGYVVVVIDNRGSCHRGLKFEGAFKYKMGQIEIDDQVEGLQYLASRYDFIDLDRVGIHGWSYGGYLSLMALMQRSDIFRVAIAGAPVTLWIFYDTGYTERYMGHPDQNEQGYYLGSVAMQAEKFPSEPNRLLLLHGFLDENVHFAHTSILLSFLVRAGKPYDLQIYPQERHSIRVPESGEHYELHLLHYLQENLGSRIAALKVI
UniProt P55039: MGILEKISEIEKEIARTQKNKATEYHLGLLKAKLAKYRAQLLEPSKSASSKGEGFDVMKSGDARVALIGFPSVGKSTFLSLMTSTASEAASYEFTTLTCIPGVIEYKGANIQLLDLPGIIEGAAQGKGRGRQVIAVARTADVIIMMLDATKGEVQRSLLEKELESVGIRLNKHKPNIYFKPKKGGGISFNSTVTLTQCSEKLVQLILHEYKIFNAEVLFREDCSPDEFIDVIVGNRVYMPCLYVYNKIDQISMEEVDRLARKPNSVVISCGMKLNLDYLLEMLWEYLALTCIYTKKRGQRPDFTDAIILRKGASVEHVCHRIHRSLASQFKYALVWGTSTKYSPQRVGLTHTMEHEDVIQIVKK
UniProt Q96BY6: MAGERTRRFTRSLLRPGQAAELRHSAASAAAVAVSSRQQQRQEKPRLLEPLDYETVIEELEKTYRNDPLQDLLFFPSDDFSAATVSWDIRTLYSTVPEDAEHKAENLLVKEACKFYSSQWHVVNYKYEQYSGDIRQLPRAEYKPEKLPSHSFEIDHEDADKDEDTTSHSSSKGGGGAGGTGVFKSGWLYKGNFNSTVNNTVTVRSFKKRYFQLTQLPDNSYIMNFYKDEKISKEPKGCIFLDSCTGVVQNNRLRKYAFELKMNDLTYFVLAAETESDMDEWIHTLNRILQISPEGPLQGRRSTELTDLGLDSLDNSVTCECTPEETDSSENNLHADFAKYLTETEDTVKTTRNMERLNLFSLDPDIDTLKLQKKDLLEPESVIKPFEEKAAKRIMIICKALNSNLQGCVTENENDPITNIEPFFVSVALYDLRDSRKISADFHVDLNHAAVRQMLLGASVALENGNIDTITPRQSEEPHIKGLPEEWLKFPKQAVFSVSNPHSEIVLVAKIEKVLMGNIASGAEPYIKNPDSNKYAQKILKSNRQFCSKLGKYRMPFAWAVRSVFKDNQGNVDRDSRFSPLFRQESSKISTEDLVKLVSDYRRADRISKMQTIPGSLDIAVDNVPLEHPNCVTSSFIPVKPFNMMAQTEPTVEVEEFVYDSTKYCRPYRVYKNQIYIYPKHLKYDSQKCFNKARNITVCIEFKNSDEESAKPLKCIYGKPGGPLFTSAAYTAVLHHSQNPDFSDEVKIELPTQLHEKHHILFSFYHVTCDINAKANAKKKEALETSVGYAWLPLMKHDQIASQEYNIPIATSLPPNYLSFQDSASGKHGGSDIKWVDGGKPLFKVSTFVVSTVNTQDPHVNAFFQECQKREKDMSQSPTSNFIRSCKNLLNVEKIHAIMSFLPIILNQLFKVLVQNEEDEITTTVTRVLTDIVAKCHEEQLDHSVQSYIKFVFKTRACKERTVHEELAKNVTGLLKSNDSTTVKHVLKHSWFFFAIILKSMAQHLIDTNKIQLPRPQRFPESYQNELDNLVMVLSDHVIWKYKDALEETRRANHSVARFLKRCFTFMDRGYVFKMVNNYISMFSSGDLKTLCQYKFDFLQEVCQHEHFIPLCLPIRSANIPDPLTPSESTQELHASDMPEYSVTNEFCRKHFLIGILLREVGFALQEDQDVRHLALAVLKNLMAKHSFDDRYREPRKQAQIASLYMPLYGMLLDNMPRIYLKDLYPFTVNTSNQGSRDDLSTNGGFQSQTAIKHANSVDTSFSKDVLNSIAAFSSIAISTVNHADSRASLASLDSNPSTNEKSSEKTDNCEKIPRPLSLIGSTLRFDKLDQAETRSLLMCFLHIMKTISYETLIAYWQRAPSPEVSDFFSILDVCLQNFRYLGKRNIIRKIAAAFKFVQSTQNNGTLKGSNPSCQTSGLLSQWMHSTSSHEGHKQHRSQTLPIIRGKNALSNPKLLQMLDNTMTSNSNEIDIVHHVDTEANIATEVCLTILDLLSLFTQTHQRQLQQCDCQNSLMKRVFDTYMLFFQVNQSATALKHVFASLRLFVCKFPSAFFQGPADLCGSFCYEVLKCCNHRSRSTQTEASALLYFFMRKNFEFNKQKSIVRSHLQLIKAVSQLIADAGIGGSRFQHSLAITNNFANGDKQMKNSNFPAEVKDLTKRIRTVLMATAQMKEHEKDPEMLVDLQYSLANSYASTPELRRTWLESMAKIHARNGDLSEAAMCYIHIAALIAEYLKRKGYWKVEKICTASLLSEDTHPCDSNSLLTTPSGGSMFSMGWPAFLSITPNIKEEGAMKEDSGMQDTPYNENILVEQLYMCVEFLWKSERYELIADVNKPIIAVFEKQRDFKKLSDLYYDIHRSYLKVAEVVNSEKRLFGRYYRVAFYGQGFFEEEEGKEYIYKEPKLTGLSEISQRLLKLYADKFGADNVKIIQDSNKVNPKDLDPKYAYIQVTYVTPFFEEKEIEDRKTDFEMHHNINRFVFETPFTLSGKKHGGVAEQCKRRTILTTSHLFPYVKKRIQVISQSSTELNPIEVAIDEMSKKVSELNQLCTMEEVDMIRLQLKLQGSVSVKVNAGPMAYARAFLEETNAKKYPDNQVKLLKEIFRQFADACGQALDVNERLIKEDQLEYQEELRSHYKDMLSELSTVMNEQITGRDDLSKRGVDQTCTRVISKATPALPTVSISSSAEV
UniProt Q8WTR2: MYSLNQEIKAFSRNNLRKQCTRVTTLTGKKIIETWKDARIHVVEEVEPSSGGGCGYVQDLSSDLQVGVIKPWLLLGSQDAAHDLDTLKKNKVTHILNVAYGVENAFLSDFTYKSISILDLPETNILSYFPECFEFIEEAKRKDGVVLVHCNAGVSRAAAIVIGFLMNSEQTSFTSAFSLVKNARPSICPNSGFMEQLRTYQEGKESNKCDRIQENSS
UniProt P60981: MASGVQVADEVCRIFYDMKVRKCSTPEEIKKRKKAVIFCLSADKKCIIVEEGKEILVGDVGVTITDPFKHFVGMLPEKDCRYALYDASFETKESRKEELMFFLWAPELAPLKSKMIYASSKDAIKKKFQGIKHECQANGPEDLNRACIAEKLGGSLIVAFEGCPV
UniProt Q14919: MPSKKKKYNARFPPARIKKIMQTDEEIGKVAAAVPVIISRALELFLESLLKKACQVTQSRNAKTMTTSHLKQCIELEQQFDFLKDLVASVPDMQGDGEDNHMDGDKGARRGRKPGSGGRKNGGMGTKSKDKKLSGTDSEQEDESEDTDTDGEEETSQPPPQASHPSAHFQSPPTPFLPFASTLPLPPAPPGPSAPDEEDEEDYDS
UniProt Q9H7D0, whole entry, looked up: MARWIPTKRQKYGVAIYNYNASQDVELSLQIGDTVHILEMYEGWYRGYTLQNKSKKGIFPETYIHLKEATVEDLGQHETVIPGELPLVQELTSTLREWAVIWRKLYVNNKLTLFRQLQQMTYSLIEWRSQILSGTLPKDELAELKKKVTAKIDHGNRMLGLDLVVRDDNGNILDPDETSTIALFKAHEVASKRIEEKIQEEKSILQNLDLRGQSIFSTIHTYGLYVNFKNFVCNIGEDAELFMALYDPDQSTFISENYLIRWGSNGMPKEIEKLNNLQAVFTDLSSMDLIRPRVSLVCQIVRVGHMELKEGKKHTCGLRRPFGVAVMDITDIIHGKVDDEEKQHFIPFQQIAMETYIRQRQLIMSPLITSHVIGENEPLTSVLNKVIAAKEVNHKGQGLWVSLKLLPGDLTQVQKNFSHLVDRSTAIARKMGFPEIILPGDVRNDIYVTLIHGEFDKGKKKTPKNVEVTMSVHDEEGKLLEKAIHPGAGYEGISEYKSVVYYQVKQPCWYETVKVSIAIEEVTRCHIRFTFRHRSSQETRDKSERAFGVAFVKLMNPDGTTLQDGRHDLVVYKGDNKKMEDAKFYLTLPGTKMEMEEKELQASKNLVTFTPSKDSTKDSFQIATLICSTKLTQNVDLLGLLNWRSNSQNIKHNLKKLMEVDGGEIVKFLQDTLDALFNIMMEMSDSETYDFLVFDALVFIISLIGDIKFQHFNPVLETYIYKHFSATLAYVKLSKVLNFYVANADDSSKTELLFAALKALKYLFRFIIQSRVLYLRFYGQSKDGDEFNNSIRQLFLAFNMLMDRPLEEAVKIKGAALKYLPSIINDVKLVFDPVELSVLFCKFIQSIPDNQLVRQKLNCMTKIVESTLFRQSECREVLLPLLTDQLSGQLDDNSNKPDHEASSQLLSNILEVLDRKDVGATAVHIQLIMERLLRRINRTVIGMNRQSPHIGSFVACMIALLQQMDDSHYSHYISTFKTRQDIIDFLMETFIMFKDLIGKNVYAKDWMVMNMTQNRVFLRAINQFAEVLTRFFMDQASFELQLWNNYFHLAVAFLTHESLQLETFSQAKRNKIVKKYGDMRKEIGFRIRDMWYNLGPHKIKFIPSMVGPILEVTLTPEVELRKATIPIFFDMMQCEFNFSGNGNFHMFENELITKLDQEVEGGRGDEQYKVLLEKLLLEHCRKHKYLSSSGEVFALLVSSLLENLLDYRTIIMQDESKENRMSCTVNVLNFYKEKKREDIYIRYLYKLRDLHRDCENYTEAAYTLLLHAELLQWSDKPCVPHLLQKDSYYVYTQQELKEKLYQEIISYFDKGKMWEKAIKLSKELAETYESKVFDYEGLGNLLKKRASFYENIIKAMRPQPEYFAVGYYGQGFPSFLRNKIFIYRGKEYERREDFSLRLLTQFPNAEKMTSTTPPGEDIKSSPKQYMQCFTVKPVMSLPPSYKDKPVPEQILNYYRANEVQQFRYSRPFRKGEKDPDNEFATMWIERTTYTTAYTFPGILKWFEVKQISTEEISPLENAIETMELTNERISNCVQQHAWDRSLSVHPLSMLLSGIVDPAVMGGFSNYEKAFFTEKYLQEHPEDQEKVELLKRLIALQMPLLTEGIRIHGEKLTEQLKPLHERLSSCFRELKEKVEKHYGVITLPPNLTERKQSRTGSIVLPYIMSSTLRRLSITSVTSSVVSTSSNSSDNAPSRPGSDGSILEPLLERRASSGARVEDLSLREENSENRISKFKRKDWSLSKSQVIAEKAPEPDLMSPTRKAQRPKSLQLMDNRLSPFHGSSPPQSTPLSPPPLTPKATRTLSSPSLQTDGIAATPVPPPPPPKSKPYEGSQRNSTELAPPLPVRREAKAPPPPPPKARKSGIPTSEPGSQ
UniProt Q92785, whole entry, looked up: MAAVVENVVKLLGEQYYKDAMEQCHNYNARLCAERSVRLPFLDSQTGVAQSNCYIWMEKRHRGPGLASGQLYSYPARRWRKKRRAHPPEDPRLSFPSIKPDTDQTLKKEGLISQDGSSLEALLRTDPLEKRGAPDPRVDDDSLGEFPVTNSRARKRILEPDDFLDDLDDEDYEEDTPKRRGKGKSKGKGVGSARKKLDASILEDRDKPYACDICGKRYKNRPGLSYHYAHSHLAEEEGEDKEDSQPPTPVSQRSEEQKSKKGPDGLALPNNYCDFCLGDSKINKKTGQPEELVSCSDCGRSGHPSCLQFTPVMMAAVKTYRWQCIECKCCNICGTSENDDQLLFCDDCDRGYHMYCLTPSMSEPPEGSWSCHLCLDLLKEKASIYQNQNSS
UniProt P63167, whole entry: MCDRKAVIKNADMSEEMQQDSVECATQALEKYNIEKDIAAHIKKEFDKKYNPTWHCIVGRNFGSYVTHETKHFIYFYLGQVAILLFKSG

Compound: CC1Cc2ccccc2N1C(=O)C1CCCN(C1)C(=O)CCl (mixture of isomers) [TRIM25 ligand 11 (diastereomer mixture)]
Experiment: probe-labelled cysteine peptide fold change vs DMSO (competition) (log2 fold change); higher = less target engagement (more negative = stronger competition)
Details: 10 µM; THP-1; incubation time: 4 h
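Note: competitive chemoproteomic profiling in live THP-1 cells with an iodoacetamide desthiobiotin (IA-DTB) probe, comparing probe-labelled peptide intensities in compound-treated cells against DMSO-treated controls.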

Row | Target | probe-labelled cysteine peptide fold change
1 | DPYSL2_Q16555_133_SCCDYSLHVDISEWHK (UniProt Q16555) | 0.131
2 | DNPH1_O43598_117_RILCLFRPQSGR (UniProt O43598) | -0.313
3 | DOCK11_Q5JSL3_492_VLQGNITHCAEPYIK (UniProt Q5JSL3) | 0.0526
4 | DYNC1H1_Q14204_4121_LHSLQPHACFR (UniProt Q14204) | 0.0169
5 | DUSP23_Q9BVJ7_108_TGTMLACYLVK (UniProt Q9BVJ7) | -0.0836
6 | DPP8_Q6V1X1_221_LCPADPDWIAFIHSNDIWISNIVTR (UniProt Q6V1X1) | 0.0503
7 | DNMT1_P26358_762_VCIDAETLEVGDCVSVIPDDSSK (UniProt P26358) | 0.169
8 | DRG2_P55039_270_KPNSVVISCGMK (UniProt P55039) | 0.117
9 | DRG2_P55039_319_GASVEHVCHR (UniProt P55039) | 0.122
10 | DNMT1_P26358_691_CPNMAMK (UniProt P26358) | -0.25
11 | DOCK10_Q96BY6_1310_TDNCEK (UniProt Q96BY6) | -0.0525
12 | DOK3_Q7L591_493_KGPAPCDRP (UniProt Q7L591) | -0.0118
13 | DUT_P33316_166_TDIQIALPSGCYGR (UniProt P33316) | 0.0433
14 | DPYSL2_Q16555_439_THNSSLEYNIFEGMECR (UniProt Q16555) | 0.0805
15 | DUT_P33316_222_IAQLICER (UniProt P33316) | -0.00468
16 | DYNC1H1_Q14204_3147_EAIVNSCVFVHQTLHQANAR (UniProt Q14204) | 0.112
17 | DPP7_Q9UHL4_332+338_LYHSCADPTGCGTGPDAR (UniProt Q9UHL4) | 0.0791
18 | DPP9_Q86TI2_225_LTFCHQGLSNVLDDPK (UniProt Q86TI2) | 0.148

Row | Target | probe-labelled cysteine peptide fold change
19 | DUS2_Q9NX74_430_KLAEQAAAIVCLR (UniProt Q9NX74) | -0.0328
20 | DUSP19_Q8WTR2_188_NARPSICPNSGFMEQLR (UniProt Q8WTR2) | -0.0315
21 | DYNC1H1_Q14204_2466_CLGSLFSMLHQACR (UniProt Q14204) | 0.00628
22 | DSTN_P60981_163_LGGSLIVAFEGCPV (UniProt P60981) | -0.0526
23 | DUT_P33316-2_3_PCSEETPAISPSK (UniProt P33316) | -0.149
24 | DRAP1_Q14919_73_QCIELEQQFDFLK (UniProt Q14919) | -0.144
25 | DOCK5_Q9H7D0_316_KHTCGLR (UniProt Q9H7D0) | 0.153
26 | DOCK11_Q5JSL3_1906_RIPINCEQQINLKPIDVATDEIK (UniProt Q5JSL3) | 0.0355
27 | DPH7_Q9BTV6_377_GASELPTPCHECR (UniProt Q9BTV6) | 0.0731
28 | DOCK10_Q96BY6_2108_QFADACGQALDVNER (UniProt Q96BY6) | 0.112
29 | DYNC1H1_Q14204_2076_LCDEQLSSQSHYDFGLR (UniProt Q14204) | -0.0206
30 | DNMT1_P26358_1499_QFNTLIPWCLPHTGNR (UniProt P26358) | -0.000403
31 | E2F4_Q16254_136_NVTEDVQNSCLAYVTHEDICR (UniProt Q16254) | 0.0138
32 | DPF2_Q92785_306_SGHPSCLQFTPVMMAAVK (UniProt Q92785) | 0.0756
33 | DOCK2_Q92608_41_IQETCGDWYR (UniProt Q92608) | 0.0325
34 | DOCK8_Q8NF50_846_NCLLASYVHYVFR (UniProt Q8NF50) | 0.0759
35 | DPF2_Q92785_276_KGPDGLALPNNYCDFCLGDSK (UniProt Q92785) | -0.0847
36 | DYNLL1_P63167_24_NADMSEEMQQDSVECATQALEK (UniProt P63167) | -0.178

Same assay, conditions: 50 µM; THP-1; incubation time: 4 h

Row | Target | probe-labelled cysteine peptide fold change
37 | DPYSL2_Q16555_133_SCCDYSLHVDISEWHK (UniProt Q16555) | -0.000105
38 | DNPH1_O43598_117_RILCLFRPQSGR (UniProt O43598) | -0.00125
39 | DOCK11_Q5JSL3_492_VLQGNITHCAEPYIK (UniProt Q5JSL3) | -0.0942
40 | DYNC1H1_Q14204_4121_LHSLQPHACFR (UniProt Q14204) | 0.278
41 | DUSP23_Q9BVJ7_108_TGTMLACYLVK (UniProt Q9BVJ7) | 0.174
42 | DPP8_Q6V1X1_221_LCPADPDWIAFIHSNDIWISNIVTR (UniProt Q6V1X1) | -0.28
43 | DNMT1_P26358_762_VCIDAETLEVGDCVSVIPDDSSK (UniProt P26358) | 0.0555
44 | DRG2_P55039_270_KPNSVVISCGMK (UniProt P55039) | 0.165
45 | DRG2_P55039_319_GASVEHVCHR (UniProt P55039) | 0.208
46 | DNMT1_P26358_691_CPNMAMK (UniProt P26358) | -0.37
47 | DOCK10_Q96BY6_1310_TDNCEK (UniProt Q96BY6) | 0.0605
48 | DOK3_Q7L591_493_KGPAPCDRP (UniProt Q7L591) | 0.0304
49 | DUT_P33316_166_TDIQIALPSGCYGR (UniProt P33316) | 0.0518
50 | DPYSL2_Q16555_439_THNSSLEYNIFEGMECR (UniProt Q16555) | -0.109
51 | DUT_P33316_222_IAQLICER (UniProt P33316) | 0.152
52 | DYNC1H1_Q14204_3147_EAIVNSCVFVHQTLHQANAR (UniProt Q14204) | -0.208
53 | DPP7_Q9UHL4_332+338_LYHSCADPTGCGTGPDAR (UniProt Q9UHL4) | 0.205
54 | DPP9_Q86TI2_225_LTFCHQGLSNVLDDPK (UniProt Q86TI2) | 0.0758

Row | Target | probe-labelled cysteine peptide fold change
55 | DUS2_Q9NX74_430_KLAEQAAAIVCLR (UniProt Q9NX74) | -0.125
56 | DUSP19_Q8WTR2_188_NARPSICPNSGFMEQLR (UniProt Q8WTR2) | -0.0499
57 | DYNC1H1_Q14204_2466_CLGSLFSMLHQACR (UniProt Q14204) | 0.122
58 | DSTN_P60981_163_LGGSLIVAFEGCPV (UniProt P60981) | -0.225
59 | DUT_P33316-2_3_PCSEETPAISPSK (UniProt P33316) | -0.196
60 | DRAP1_Q14919_73_QCIELEQQFDFLK (UniProt Q14919) | -0.0354
61 | DOCK5_Q9H7D0_316_KHTCGLR (UniProt Q9H7D0) | 0.0645
62 | DOCK11_Q5JSL3_1906_RIPINCEQQINLKPIDVATDEIK (UniProt Q5JSL3) | 0.00758
63 | DPH7_Q9BTV6_377_GASELPTPCHECR (UniProt Q9BTV6) | 0.019
64 | DOCK10_Q96BY6_2108_QFADACGQALDVNER (UniProt Q96BY6) | 0.0382
65 | DYNC1H1_Q14204_2076_LCDEQLSSQSHYDFGLR (UniProt Q14204) | -0.0936
66 | DNMT1_P26358_1499_QFNTLIPWCLPHTGNR (UniProt P26358) | -0.0903
67 | E2F4_Q16254_136_NVTEDVQNSCLAYVTHEDICR (UniProt Q16254) | -0.106
68 | DPF2_Q92785_306_SGHPSCLQFTPVMMAAVK (UniProt Q92785) | -0.322
69 | DOCK2_Q92608_41_IQETCGDWYR (UniProt Q92608) | -0.049
70 | DOCK8_Q8NF50_846_NCLLASYVHYVFR (UniProt Q8NF50) | 0.189
71 | DPF2_Q92785_276_KGPDGLALPNNYCDFCLGDSK (UniProt Q92785) | 0.0551
72 | DYNLL1_P63167_24_NADMSEEMQQDSVECATQALEK (UniProt P63167) | -0.22
